Results as given in publication PMC5701637.
For at least one entry, the source does not settle the construct or the ends of the probe. At least one verdict was read from the data and is not stated in words by the source.

Protein sequences, listed by entry. Tags and fused reporters are not part of them. Lines headed by an entry give the natural chain unless they say otherwise; changes in a name come on top.
UniProt P0AGE0: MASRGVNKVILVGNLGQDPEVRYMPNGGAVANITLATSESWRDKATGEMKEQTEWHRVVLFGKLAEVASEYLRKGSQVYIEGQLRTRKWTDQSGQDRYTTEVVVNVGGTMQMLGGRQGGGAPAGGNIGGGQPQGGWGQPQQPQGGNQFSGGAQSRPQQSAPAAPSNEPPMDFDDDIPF

Molecular target: single-strand binding protein (SSB) (Escherichia coli DH5alpha) (UniProt P0AGE0)
Assay: fluorescence polarization
Settings: 20 nM SSB, 5 nM DNA; FP: 25 mM MOPS pH 7.5, 1.25 mM MgCl2, 0.0025 mg/mL BSA, 0.005% Tween 20, 0.025 mM DTT, 1% DMSO, temperature not stated; recombinant …; single-stranded DNA

Sequence: TTTTTTTTTTTTTTT [Cy5-dT15]
- binding result: binds
